From the supplement of paper PMC10849652
Some of the results follow.

Sequences of proteins named here, by UniProt entry; tags and fusion partners are left off. A change or cut given only in a name is not applied to a line headed by its entry.
UniProt Q14116, whole entry, looked up: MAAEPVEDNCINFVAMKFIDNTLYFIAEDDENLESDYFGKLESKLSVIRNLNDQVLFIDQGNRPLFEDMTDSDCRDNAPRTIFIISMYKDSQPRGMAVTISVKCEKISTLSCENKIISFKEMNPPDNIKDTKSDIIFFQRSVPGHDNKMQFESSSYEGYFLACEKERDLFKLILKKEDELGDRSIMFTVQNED
UniProt P41134: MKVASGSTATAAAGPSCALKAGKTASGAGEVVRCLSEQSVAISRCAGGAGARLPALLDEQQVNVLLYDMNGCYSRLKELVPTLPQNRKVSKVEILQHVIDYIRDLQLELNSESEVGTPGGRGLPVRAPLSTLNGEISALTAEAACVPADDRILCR
UniProt O75054: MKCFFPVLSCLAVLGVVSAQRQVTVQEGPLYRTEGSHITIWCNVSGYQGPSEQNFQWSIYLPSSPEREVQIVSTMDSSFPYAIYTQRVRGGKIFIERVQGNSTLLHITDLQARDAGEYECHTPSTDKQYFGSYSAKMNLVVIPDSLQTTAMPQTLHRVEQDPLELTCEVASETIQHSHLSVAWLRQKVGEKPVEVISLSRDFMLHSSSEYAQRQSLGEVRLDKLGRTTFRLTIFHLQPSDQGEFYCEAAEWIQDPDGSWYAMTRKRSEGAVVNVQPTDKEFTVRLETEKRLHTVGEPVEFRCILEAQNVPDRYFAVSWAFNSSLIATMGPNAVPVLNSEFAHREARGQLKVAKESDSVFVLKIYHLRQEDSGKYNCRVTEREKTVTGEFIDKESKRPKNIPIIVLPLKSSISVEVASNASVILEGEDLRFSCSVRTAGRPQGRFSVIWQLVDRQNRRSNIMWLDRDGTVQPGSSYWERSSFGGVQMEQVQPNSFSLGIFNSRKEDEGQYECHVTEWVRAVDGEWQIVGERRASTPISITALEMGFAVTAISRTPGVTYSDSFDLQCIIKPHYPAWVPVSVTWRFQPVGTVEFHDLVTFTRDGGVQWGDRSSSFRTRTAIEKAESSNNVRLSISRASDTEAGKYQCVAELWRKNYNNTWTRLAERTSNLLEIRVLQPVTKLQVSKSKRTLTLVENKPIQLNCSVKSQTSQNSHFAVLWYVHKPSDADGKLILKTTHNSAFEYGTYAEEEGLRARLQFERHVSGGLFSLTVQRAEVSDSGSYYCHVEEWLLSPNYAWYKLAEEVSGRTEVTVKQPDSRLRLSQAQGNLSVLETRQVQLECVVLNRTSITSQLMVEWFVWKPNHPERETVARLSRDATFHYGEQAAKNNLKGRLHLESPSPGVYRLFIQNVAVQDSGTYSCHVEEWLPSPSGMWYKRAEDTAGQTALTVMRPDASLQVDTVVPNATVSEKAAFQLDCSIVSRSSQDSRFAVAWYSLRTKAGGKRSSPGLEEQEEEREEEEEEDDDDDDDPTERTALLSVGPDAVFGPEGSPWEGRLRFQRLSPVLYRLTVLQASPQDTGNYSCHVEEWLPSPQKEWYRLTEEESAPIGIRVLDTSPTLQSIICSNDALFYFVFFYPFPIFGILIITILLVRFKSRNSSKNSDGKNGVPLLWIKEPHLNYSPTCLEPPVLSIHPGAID
UniProt Q9Y547: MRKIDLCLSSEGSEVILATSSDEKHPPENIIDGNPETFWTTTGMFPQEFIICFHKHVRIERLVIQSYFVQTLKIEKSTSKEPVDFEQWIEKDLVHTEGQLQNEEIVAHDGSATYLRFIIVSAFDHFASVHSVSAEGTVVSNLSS
UniProt P78318: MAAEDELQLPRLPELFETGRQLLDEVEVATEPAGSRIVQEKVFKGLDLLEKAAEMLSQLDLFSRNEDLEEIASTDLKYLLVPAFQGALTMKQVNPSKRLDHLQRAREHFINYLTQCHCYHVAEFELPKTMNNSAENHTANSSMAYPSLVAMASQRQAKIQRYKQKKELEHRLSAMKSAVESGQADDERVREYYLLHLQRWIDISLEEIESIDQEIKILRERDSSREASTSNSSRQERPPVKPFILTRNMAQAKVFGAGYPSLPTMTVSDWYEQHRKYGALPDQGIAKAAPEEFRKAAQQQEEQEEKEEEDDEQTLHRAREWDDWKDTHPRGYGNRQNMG
UniProt P22692: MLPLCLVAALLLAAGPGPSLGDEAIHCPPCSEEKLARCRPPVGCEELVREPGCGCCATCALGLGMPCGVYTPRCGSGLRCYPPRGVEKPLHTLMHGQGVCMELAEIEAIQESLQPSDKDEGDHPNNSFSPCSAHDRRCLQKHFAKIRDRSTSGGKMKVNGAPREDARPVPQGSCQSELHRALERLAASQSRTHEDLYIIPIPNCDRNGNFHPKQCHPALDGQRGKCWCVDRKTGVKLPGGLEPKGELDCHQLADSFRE
UniProt P51553: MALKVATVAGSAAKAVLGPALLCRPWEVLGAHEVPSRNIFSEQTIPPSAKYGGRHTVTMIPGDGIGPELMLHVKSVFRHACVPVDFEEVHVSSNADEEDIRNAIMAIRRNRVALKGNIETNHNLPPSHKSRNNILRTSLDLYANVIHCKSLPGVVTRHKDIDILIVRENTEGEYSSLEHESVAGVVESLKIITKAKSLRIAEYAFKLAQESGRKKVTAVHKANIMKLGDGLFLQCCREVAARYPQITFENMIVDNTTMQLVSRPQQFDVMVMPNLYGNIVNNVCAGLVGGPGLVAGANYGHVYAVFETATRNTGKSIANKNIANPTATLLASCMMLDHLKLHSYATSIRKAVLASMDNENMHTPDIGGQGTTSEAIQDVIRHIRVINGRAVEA
UniProt Q12906, whole entry, looked up: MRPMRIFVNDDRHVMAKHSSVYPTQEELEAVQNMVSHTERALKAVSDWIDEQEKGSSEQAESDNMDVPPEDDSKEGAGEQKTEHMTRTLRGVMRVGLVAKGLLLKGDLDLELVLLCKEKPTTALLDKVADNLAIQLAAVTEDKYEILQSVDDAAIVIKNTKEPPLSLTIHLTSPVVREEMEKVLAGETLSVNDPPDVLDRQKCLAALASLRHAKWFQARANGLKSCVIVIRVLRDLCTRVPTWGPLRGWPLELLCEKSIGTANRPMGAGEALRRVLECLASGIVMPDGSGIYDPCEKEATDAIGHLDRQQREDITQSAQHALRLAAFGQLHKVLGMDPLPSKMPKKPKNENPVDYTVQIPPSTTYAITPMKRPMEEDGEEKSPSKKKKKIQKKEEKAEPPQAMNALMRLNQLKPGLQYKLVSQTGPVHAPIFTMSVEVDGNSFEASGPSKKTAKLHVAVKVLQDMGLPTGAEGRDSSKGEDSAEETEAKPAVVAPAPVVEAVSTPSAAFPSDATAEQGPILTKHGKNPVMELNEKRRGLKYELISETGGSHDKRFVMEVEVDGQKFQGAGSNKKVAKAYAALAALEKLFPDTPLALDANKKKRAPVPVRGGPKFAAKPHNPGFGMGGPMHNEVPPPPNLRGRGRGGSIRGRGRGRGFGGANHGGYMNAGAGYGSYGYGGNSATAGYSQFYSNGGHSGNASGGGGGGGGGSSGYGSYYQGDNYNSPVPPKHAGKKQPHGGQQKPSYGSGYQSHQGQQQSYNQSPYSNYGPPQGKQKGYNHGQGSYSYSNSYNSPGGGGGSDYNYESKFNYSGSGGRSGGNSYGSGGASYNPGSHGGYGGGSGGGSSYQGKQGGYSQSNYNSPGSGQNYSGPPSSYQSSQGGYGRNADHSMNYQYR
UniProt Q8NBZ0, whole entry, looked up: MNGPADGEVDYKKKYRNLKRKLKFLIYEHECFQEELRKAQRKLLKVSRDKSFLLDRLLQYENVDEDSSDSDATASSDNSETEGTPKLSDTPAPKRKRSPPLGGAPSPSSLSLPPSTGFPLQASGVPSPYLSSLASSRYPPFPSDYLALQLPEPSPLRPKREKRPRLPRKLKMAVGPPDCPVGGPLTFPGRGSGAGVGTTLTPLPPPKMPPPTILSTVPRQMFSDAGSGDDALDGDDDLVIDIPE
UniProt Q6UWB1, whole entry, looked up: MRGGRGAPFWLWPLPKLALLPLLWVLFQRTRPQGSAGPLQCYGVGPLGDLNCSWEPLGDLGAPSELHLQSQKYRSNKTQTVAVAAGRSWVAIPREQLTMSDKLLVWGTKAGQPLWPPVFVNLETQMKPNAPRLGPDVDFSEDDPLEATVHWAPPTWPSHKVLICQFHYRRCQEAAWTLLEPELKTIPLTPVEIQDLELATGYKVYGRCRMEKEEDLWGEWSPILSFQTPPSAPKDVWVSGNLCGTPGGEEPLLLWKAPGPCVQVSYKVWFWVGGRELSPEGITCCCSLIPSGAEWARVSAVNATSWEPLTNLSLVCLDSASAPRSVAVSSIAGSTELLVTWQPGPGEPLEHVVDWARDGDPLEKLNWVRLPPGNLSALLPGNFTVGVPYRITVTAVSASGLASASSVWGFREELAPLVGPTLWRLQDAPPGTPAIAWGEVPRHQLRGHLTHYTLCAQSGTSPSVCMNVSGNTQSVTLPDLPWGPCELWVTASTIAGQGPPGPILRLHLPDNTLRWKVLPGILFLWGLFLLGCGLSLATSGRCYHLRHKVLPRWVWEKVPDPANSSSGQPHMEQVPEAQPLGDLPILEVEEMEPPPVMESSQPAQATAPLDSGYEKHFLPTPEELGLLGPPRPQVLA
UniProt Q9Y6M1: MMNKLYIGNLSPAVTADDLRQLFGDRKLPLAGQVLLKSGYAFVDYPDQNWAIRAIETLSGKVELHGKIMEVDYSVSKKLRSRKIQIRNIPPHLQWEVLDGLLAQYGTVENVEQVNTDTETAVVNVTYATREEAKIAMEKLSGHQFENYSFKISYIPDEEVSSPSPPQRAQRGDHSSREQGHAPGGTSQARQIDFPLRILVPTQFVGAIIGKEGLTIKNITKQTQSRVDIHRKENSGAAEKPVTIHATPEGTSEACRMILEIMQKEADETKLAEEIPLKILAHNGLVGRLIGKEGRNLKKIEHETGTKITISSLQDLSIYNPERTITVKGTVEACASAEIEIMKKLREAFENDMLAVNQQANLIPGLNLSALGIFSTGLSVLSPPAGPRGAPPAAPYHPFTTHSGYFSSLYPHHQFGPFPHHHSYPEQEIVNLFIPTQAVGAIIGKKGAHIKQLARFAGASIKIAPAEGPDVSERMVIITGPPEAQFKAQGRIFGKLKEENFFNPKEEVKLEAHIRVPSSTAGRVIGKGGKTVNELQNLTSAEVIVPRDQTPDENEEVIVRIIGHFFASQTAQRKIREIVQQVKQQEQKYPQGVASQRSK
UniProt Q9H6K1: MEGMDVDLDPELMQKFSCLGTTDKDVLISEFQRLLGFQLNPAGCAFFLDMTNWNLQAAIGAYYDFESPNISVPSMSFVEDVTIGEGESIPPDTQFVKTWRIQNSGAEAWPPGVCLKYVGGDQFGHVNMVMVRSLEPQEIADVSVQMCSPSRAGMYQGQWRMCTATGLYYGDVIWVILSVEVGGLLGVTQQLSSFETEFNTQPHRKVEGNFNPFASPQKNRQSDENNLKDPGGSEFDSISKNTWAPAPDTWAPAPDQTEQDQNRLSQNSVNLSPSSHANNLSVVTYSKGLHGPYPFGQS
UniProt Q96LU5: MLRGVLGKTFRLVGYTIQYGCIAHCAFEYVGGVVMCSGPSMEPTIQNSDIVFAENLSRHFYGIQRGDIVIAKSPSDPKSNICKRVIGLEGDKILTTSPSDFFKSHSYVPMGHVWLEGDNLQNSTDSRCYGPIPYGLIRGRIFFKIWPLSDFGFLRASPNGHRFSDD
UniProt Q659A1: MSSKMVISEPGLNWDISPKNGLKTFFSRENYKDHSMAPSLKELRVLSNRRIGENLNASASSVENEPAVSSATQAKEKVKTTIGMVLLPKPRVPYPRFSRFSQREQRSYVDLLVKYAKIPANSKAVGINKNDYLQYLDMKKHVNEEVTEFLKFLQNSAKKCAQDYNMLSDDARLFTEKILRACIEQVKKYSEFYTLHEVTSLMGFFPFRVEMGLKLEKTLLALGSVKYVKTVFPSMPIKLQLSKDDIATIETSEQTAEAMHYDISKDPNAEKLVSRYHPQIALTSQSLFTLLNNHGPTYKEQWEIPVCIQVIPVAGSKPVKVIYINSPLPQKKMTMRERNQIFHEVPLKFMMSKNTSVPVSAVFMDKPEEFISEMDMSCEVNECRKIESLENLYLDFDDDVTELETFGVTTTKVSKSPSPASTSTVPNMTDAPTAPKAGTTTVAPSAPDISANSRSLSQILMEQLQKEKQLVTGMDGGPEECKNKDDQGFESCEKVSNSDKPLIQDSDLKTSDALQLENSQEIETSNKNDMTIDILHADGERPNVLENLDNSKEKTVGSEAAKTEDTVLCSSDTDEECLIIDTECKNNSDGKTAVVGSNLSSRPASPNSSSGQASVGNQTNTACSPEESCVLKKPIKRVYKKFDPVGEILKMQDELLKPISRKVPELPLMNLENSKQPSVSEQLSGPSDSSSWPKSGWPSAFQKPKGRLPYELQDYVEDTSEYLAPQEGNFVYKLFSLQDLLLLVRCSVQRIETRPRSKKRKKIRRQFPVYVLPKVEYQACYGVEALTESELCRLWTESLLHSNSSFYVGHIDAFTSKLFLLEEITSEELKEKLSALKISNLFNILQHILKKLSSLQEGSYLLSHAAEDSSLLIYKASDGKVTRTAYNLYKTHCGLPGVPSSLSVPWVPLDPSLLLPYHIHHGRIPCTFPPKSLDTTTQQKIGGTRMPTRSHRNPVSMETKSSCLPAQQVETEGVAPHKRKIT

Each target was assayed with Cc1ncc(-c2ccnc(Nc3ccc(S(C)(=O)=O)cc3)n2)n1C(C)C (assay: log2 fold change, soluble protein after heating vs DMSO (PISA); higher = thermal stabilisation; K562 lysate, 10 uM; active = over 0.2 and 3.5 SD of the protein, either way, in both replicates (recomputed)).
Method in brief: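 Dounce homogenisation of K562 pellets in PBS pH 7.4 with 1 mM MgCl2 produced a crude extract, used at 1 mg/mL protein. Exposure to 10 μM compound lasted 30 min, and aliquots were then heated for 3 min across 48°C-58°C, pooled and brought to 0.5% NP-40 at 4°C. The supernatant after 21,000xg for 90 min was quantified by TMTpro 16plex LC-MS/MS with channel sums equalised. Duplicate values are given as log-two fold change in thermal stability relative to solvent controls.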

log2 fold change, inactive:
IL18 (UniProt Q14116) -0.039
IK (UniProt Q13123) -0.019
ID1 (UniProt P41134) 0.249
IGSF3 (UniProt O75054) -0.028
IMPDH2 (UniProt H0Y4R1) 0.014
HSPB11 (UniProt Q9Y547) -0.002
IBTK (UniProt Q9P2D0) 0.007
IGBP1 (UniProt P78318) 0.036
INPP4A (UniProt Q96PE3) 0.005
IGFBP4 (UniProt P22692) -0.053
INPP5B (UniProt P32019) -0.003
HTT (UniProt P42858) 0.072
HYOU1 (UniProt J3QL06) -0.098
IGHA1 (UniProt P01876) 0.002
IFT57 (UniProt Q9NWB7) -0.12
IFT74 (UniProt Q96LB3) -0.016
IDH3G (UniProt P51553) 0.018
IMPAD1 (UniProt Q9NX62) -0.027
ILF3 isoform 7 (UniProt Q12906) -0.017
HSPBAP1 (UniProt Q96EW2) 0.14
ICAM2 (UniProt P13598) 0.012
INO80E (UniProt Q8NBZ0) -0.131
IGHMBP2 (UniProt P38935) -0.002
IGHG1 (UniProt P01857) 0.071
INTS1 (UniProt Q8N201) 0.035
IL27RA (UniProt Q6UWB1) 0.084
HSPA8 (UniProt E9PN89) -0.055
IGF2BP2 (UniProt Q9Y6M1) -0.008
ILRUN (UniProt Q9H6K1) -0.073
IMMP1L (UniProt Q96LU5) 0.016
IDH2 (UniProt P48735) 0.01
ICE2 (UniProt Q659A1) 0.036
IFT122 isoform 5 (UniProt Q9HBG6) 0.127

Reprinted at random: 2 records from the list.
log2 fold change, inactive:
IFT57 (UniProt Q9NWB7) -0.12
IL27RA (UniProt Q6UWB1) 0.084
